Experimental data as given in US9637480B2, “Parasite- and hygienic pest-controlling agent” (NISSAN CHEMICAL INDUSTRIES, LTD., priority 2010, dated 2017).
Some results were stated once for a whole list of compounds, not compound by compound.

Tests used:
Type in all cases: in vivo
[1] = tested on: American dog tick (Dermacentor variabilis); assay: Insecticidal test against American dog tick (glass container thin film contact); details: first nymph stage, 25° C.
[2] = tested on: cat flea (Ctenocephalides felis); assay: Insecticidal test against cat flea (glass container thin film contact); details: adult cat flea, 25° C.
[3] = tested on: termite (Reticulitermes flavipes); assay: Insecticidal test against termite (treated sand); details: 0.5 ml in 10 g sand, after 10 days
[4] = tested on: German cockroach (Blattella germanica); assay: Insecticidal test against German cockroach (topical application); details: male adults, after 2 days
[5] = tested on: Culex pipiens molestus Forskal; assay: Insecticidal test against mosquito (larvae in water); details: larvae 1 day after hatching, final concentration 0.1 ppm, after 1 day
[6] = tested on: housefly (Musca domestica); assay: Insecticidal test against housefly (topical application); details: female adults, after 3 days
[7] = treated dosage 0.01 μg/cm^2, after 4 days
[8] = treated dosage 0.01 μg/cm^2 (*), after 4 days
[9] = treated dosage 0.1 μg/cm^2, after 4 days
[10] = 1 μL per cockroach of 10 μg/μL acetone solution on abdominal region
[11] = treated dosage 0.001 μg/cm^2 (*), after 4 days
[12] = 1 μL per cockroach of 1 μg/μL acetone solution (*) on abdominal region
[13] = 1 μL per fly of 0.01 μg/μL acetone solution on thoracic dorsal region

| Compound | rate of dead insects [1, 7] [%] | rate of dead insects [2, 8] [%] | rate of dead insects [2, 9] [%] | rate of dead insects ([3]; chemical solution 100 ppm (*)) [%] | rate of dead insects [4, 10] [%] | rate of dead insects [5] [%] | rate of dead insects [1, 11] [%] | rate of dead insects ([3]; chemical solution 10 ppm) [%] | rate of dead insects [4, 12] [%] | insecticidal rate [6, 13] [%] | insecticidal rate ([6]; 1 μL per fly of 0.1 μg/μL acetone solution (*) on thoracic dorsal region) [%] |
| --- | --- | --- | --- | --- | --- | --- | --- | --- | --- | --- | --- |
| Cc1cc(C2=NOC(c3cc(Cl)cc(C(F)(F)F)c3)(C(F)(F)F)C2)ccc1C(=O)NC1CSC1 (stereo not shown) [1-007] | ≥ 80 | ≥ 80 | – | – | – | – | – | – | – | – | – |
| Cc1cc(C2=NOC(c3cc(Br)c(F)c(Br)c3)(C(F)(F)F)C2)ccc1C(=O)NC1CS(=O)(=O)C1 (stereo not shown) [1-006] | ≥ 80 | – | ≥ 80 | – | – | – | – | – | – | – | – |
| Cc1cc(C2=NCC(c3cc(Cl)nc(Cl)c3)(C(F)(F)F)C2)ccc1C(=O)NC1CSC1 (stereo not shown) [Compound No. 5-001, 4-[4-(2,6-dichloropyridin-4-yl)-4-trifluoromethyl-4,5-dihydro-3H-pyrrol-2-yl]-2-methyl-N-(thietan-3-yl)benzoic acid amide] | ≥ 80 | – | ≥ 80 | – | – | – | – | – | – | – | – |
| Cc1cc(C2=NOC(c3cc(Cl)nc(Cl)c3)(C(F)(F)F)C2)ccc1C(=O)NC1CSC1 (stereo not shown) [4-001] | ≥ 80 | ≥ 80 | – | ≥ 90 | ≥ 90 | ≥ 90 | – | – | – | – | – |
| Cc1cc(C2=NOC(c3cc(Br)cc(C(F)(F)F)c3)(C(F)(F)F)C2)ccc1C(=O)NC1CSC1 (stereo not shown) [1-010] | – | ≥ 80 | – | – | – | – | ≥ 80 | – | – | – | – |
| Cc1cc(C2=NOC(c3cc(Cl)cc(Cl)c3)(C(F)(F)F)C2)ccc1C(=O)NC1CSC1 (stereo not shown) [Compound No. 1-001, 4-[5-(3,5-Dichlorophenyl)-4,5-dihydro-5-(trifluoromethyl)isoxazol-3-yl]-2-methyl-N-(thietan-3-yl)benzoic acid amide] | – | ≥ 80 | – | – | – | ≥ 90 | ≥ 80 | ≥ 90 | ≥ 90 | ≥ 90 | – |
| Cc1cc(C2=NOC(c3cc(Cl)cc(C(F)(F)F)c3)(C(F)(F)F)C2)ccc1C(=O)NC1C[S+]([O-])C1 (stereo not shown) [1-008] | ≥ 80 | ≥ 80 | – | – | – | ≥ 90 | – | – | – | – | – |
| Cc1cc(C2=NOC(c3cc(Cl)cc(Cl)c3)(C(F)(F)F)C2)ccc1C(=O)NC1C[S+]([O-])C1 (stereo not shown) [Compound No. 1-002, 4-[5-(3,5-Dichlorophenyl)-4,5-dihydro-5-(trifluoromethyl)isoxazol-3-yl]-2-methyl-N-(1-oxothietan-3-yl)benzoic acid amide] | ≥ 80 | – | ≥ 80 | – | – | ≥ 90 | – | ≥ 90 | ≥ 90 | ≥ 90 | – |
| Cc1cc(C2=NOC(c3cc(Cl)cc(Cl)c3)(C(F)(F)F)C2)ccc1C(=O)NC1CS(=O)(=O)C1 (stereo not shown) [Compound No. 1-003, 4-[5-(3,5-dichlorophenyl)-4,5-dihydro-5-(trifluoromethyl)isoxazol-3-yl]-2-methyl-N-(1,1-dioxothietan-3-yl)benzoic acid amide] | ≥ 80 | – | ≥ 80 | – | – | ≥ 90 | – | ≥ 90 | ≥ 90 | – | ≥ 90 |
| Cc1cc(C2=NOC(c3cc(Br)c(F)c(Br)c3)(C(F)(F)F)C2)ccc1C(=O)NC1CSC1 (stereo not shown) [Compound No. 1-004, 4-[5-(3,5-Dibromo-4-fluorophenyl)-4,5-dihydro-5-(trifluoromethyl)isoxazol-3-yl]-2-methyl-N-(thietan-3-yl)benzoic acid amide] | – | ≥ 80 | – | – | – | ≥ 90 | ≥ 80 | ≥ 90 | ≥ 90 | ≥ 90 | – |
| Cc1cc(C2=NOC(c3cc(Br)c(F)c(Br)c3)(C(F)(F)F)C2)ccc1C(=O)NC1C[S+]([O-])C1 (stereo not shown) [1-005] | ≥ 80 | ≥ 80 | – | – | – | – | – | – | – | – | – |
| CCN1OCC(NC(=O)c2ccc(C3=NOC(c4cc(Cl)cc(Cl)c4)(C(F)(F)F)C3)cc2C)C1=O (stereo not shown) [1-013] | – | ≥ 80 | – | – | – | – | ≥ 80 | – | – | – | – |
| Cc1cc(C2=NOC(c3cc(Cl)cc(C(F)(F)F)c3)(C(F)(F)F)C2)ccc1C(=O)NC1CS(=O)(=O)C1 (stereo not shown) [1-009] | ≥ 80 | ≥ 80 | – | – | – | ≥ 90 | – | ≥ 90 | ≥ 90 | ≥ 90 | – |
| Cc1cc(C2=NOC(c3cc(Br)cc(C(F)(F)F)c3)(C(F)(F)F)C2)ccc1C(=O)NC1C[S+]([O-])C1 (stereo not shown) [1-011] | ≥ 80 | ≥ 80 | – | – | ≥ 90 | ≥ 90 | – | ≥ 90 | – | ≥ 90 | – |
| Cc1cc(C2=NOC(c3cc(Br)cc(C(F)(F)F)c3)(C(F)(F)F)C2)ccc1C(=O)NC1CS(=O)(=O)C1 (stereo not shown) [1-012] | – | ≥ 80 | – | – | ≥ 90 | ≥ 90 | – | ≥ 90 | – | ≥ 90 | – |
